Experiment [1] deals with Hsp78TR-6xHis (Hsp78 E216Q/E614Q Walker B mutant with a C-terminal 6x polyhistidine-tag) (S. cerevisiae) (UniProt P33416). The experiment in a line: affinity purification with mass spectrometry.
In experiment [2] the target is Hsp78-6xHis (wild-type Hsp78 with a C-terminal 6x polyhistidine-tag) (S. cerevisiae) (UniProt P33416). The experiment in a line: affinity purification with mass spectrometry.

By UniProt entry, the sequences of proteins in these tests, tags left out. Where a name states a change or a piece, a line headed by the entry shows the natural chain unless it says otherwise. Residues count along the entry.
UniProt P33416, residues 45-811: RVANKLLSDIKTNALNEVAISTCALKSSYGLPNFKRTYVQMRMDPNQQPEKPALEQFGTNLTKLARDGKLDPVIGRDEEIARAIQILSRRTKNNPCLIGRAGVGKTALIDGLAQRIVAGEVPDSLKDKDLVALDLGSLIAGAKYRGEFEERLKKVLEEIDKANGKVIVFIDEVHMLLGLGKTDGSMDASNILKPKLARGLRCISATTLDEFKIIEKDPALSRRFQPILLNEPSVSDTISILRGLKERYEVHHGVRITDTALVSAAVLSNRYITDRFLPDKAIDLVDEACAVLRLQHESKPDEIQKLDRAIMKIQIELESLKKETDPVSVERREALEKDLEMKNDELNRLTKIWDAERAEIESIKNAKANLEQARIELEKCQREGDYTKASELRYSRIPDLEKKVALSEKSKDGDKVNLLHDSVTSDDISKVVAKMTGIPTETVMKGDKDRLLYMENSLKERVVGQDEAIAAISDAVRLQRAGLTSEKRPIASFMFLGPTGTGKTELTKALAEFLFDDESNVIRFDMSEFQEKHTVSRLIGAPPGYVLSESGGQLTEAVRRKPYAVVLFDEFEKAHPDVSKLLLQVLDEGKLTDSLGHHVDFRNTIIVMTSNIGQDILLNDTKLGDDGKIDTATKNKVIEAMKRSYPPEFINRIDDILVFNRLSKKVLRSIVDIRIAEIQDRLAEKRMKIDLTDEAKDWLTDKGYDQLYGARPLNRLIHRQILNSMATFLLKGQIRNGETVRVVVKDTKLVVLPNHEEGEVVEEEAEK
UniProt P19882, residues 26-572: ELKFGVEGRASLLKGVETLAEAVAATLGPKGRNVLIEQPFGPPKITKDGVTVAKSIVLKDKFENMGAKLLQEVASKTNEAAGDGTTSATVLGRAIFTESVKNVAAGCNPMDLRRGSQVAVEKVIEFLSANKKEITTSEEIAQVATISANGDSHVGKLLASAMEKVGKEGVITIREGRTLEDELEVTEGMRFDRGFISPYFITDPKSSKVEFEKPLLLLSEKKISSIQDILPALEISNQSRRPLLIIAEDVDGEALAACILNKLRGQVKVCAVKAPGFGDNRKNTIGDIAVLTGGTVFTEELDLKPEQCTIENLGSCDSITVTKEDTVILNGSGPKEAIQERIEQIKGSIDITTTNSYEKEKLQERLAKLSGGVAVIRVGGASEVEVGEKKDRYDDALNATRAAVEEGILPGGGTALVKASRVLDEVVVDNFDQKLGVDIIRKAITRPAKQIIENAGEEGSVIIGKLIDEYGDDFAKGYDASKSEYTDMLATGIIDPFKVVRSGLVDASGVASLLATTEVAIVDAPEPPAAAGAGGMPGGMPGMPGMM
UniProt P0CS90, residues 24-654: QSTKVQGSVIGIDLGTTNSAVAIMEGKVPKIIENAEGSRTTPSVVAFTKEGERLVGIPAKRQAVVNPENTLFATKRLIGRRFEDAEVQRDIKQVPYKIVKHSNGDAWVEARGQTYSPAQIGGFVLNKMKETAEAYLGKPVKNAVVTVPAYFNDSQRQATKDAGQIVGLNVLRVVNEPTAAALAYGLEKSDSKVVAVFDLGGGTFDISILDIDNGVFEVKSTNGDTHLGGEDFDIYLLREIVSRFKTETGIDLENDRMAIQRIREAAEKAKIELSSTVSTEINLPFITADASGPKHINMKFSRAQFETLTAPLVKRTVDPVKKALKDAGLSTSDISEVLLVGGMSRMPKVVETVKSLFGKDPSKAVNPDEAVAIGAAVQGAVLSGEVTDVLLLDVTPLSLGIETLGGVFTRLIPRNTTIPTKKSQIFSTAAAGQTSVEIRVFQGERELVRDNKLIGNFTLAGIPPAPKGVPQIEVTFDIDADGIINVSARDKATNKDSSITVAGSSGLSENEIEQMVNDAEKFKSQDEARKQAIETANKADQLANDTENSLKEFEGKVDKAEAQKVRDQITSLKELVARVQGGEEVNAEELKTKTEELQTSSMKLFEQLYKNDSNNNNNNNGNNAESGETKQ
UniProt P09950, residues 23-548: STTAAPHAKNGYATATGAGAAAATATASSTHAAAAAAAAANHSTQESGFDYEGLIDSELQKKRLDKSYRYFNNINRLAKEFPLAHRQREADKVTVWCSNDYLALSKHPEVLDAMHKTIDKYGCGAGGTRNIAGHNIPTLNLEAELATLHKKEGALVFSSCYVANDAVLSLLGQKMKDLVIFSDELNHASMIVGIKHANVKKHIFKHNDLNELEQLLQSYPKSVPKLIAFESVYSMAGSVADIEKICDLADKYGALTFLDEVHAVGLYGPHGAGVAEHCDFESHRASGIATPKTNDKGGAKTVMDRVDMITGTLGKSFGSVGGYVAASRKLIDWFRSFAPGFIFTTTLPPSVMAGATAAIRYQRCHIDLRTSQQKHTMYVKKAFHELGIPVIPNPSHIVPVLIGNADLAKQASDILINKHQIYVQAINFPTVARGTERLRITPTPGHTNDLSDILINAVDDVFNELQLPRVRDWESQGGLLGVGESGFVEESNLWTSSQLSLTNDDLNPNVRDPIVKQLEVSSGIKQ

No constants are given. Whether binding was seen depends on the method and setting. In cells and extracts the contact can be indirect. A yes stands for co-enrichment or nearness to the bait. Other partners may have been found.

In the case of Hsp60 (from UniProt P19882 26-572), the binding result in experiment [1] was “binds”. In the case of “Ssc1 (mtHsp70, main Hsp70 chaperone of the mitochondrial matrix) (from UniProt P0CS90 24-654)”, the binding result in experiment [2] and in experiment [1] was “binds” in each case. Take “Hem1 (5-aminolevulinate synthase) (from UniProt P09950 23-548)”: in experiment [1], the binding entry is given as “binds”.

These data come from paper doi:10.1101/2022.01.28.478199.
